Data taken from the supplement of paper PMC4604168 (melanoma cell lines).
The list shows a part of the results. Many values rest on one well or one pass, so single values are uncertain.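 Cells were imaged in 1,536-well plates, and nuclei stained with an antibody against cleaved PARP were counted against all DNA-stained nuclei to give the apoptosis fraction. Screening doses were chosen to leave most cells alive, and resting and induced cleaved-PARP levels differ strongly between cell lines.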

Assays:
Assay in all cases: cleaved PARP positive nuclei fraction relative to DMSO control; melanoma cells; higher = more apoptosis
Conditions in all cases: library dose: low library concentration; 72 h
[1] = test system: 501Mel
[2] = test system: A101D
[3] = test system: A2058
[4] = test system: A375
[5] = test system: C32
[6] = test system: CBRC013 (line from a melanoma biopsy)
[7] = test system: CBRC014 (line from a melanoma biopsy)
[8] = test system: CBRC016 (line from a melanoma biopsy)
[9] = test system: CBRC017 (line from a melanoma biopsy)
[10] = test system: CBRC034 (line from a melanoma biopsy)
[11] = test system: COLO792
[12] = test system: COLO800
[13] = test system: COLO829
[14] = test system: G361
[15] = test system: IPC-298
[16] = test system: IST-MEL1
[17] = test system: LB2518-MEL
[18] = test system: LOXIMVI

Row | SMILES | cleaved PARP positive nuclei fraction [1] [%] | cleaved PARP positive nuclei fraction [2] [%] | cleaved PARP positive nuclei fraction [3] [%] | cleaved PARP positive nuclei fraction [4] [%] | cleaved PARP positive nuclei fraction [5] [%] | cleaved PARP positive nuclei fraction [6] [%] | cleaved PARP positive nuclei fraction [7] [%] | cleaved PARP positive nuclei fraction [8] [%] | cleaved PARP positive nuclei fraction [9] [%] | cleaved PARP positive nuclei fraction [10] [%] | cleaved PARP positive nuclei fraction [11] [%] | cleaved PARP positive nuclei fraction [12] [%] | cleaved PARP positive nuclei fraction [13] [%] | cleaved PARP positive nuclei fraction [14] [%] | cleaved PARP positive nuclei fraction [15] [%] | cleaved PARP positive nuclei fraction [16] [%] | cleaved PARP positive nuclei fraction [17] [%] | cleaved PARP positive nuclei fraction [18] [%]
1 | O=C(CCCCCCC(=O)Nc1ccccc1)NO [vorinostat] + COc1cc(N2CCC(N3CCN(C)CC3)CC2)ccc1Nc1ncc(Cl)c(Nc2ccccc2S(=O)(=O)C(C)C)n1 [NVP-TAE684] (first compound 0.08 µM, partner dose 0.08 µM) | 44 | 114 | 122 | 41.9 | 84.9 | 271 | 84.6 | 56.1 | 89.3 | 57.5 | 123 | 97.7 | 59 | 82.5 | 110 | 131 | 80.1 | 36.8
2 | COc1cc(Nc2ncc(F)c(Nc3ccc4c(n3)NC(=O)C(C)(C)O4)n2)cc(OC)c1OC [Tamatinib] + O=C(O)C(=O)Nc1sc2c(c1C(=O)O)CCNC2 [TCS401] (first compound 0.4 µM, partner dose 1.66667 µM) | 44.2 | 69.6 | 96 | 125 | 49.2 | 50.7 | 97.8 | 86.8 | 121 | 94.9 | 99 | 240 | 163 | 75.8 | 151 | 56 | 102 | 21.3
3 | COc1cc(Nc2ncc(F)c(Nc3ccc4c(n3)NC(=O)C(C)(C)O4)n2)cc(OC)c1OC [Tamatinib] + c1cc(-c2cnn3cc(-c4ccc(OCCN5CCCCC5)cc4)cnc23)ccn1 [Dorsomorphin] (first compound 0.4 µM, partner dose 0.4 µM) | 162 | 127 | 78.9 | 180 | 63 | 187 | 92.2 | 85.5 | 110 | 132 | 244 | 39.6 | 108 | 128 | 154 | 95.2 | 99.9 | 92.8
4 | Cc1cc(N2CCOCC2)cc2[nH]c(-c3c(NC[C@@H](O)c4cccc(Cl)c4)cc[nH]c3=O)nc12 + CCc1ccc(CCOc2ccc(CC3SC(=O)NC3=O)cc2)nc1 [pioglitazone] (first compound 0.2 µM, partner dose 2 µM) | 24.9 | 60.8 | 262 | 204 | 133 | 46.4 | 85.6 | 104 | 131 | 84.8 | 158 | 240 | 103 | 98.5 | 142 | 78.7 | 174 | 48.1
5 | COc1cc(Nc2ncc(F)c(Nc3ccc4c(n3)NC(=O)C(C)(C)O4)n2)cc(OC)c1OC [Tamatinib] + COc1cc2ncnc(Nc3ccc(Oc4ccccc4)cc3)c2cc1OC [SrcI1] (first compound 0.4 µM, partner dose 2 µM) | 48.9 | 195 | 36.2 | 127 | 60.8 | 140 | 96.5 | 92.7 | 109 | 140 | 152 | 114 | 106 | 166 | 32.6 | 92.4 | 88.4 | 35.9
6 | CC1(C)NC(=O)N(c2ccc([N+](=O)[O-])c(C(F)(F)F)c2)C1=O [nilutamide] + O=c1cc(-c2cccc3c2Sc2ccccc2S3)oc(N2CCOCC2)c1 [KU55933] (first compound 1 µM, partner dose 1 µM) | 109 | 32.4 | 35 | 124 | 69.5 | 127 | 78.3 | 101 | 75.9 | 37.4 | 94.8 | 57.4 | 88.3 | 83.4 | 26.2 | 88.6 | 67 | 88.6
7 | OCCn1cc(-c2cnc3nnn(Cc4ccc5ncccc5c4)c3n2)cn1 + Cn1cc(/C=C2\C(=O)Nc3cccnc32)c2ccccc21 [GW441756] (first compound 1 µM, partner dose 0.4 µM) | 79.4 | 52.3 | 48.5 | 99.9 | 131 | 91.9 | 93.1 | 107 | 88.6 | 171 | 79.8 | 71.4 | 84.5 | 74.5 | 42.6 | 41.6 | 90.1 | 81.7
8 | CO[C@@H]1[C@H](N(C)C(=O)c2ccccc2)C[C@H]2O[C@]1(C)n1c3ccccc3c3c4c(c5c6ccccc6n2c5c31)C(=O)NC4 [Midostaurin] + Cc1cc([N+](=O)[O-])ccc1NS(=O)(=O)c1cc(Cl)ccc1Cl [FH535] (first compound 0.08 µM, partner dose 1 µM) | 29.5 | 295 | 69.8 | 89.6 | 218 | 324 | 149 | 1170 | 327 | 211 | 118 | 261 | 206 | 291 | 90.8 | 79.1 | 403 | 79.7
9 | Nc1cccc2c1CN(C1CCC(=O)NC1=O)C2=O (configuration not stated) [lenalidomide] + Oc1nc(-c2ccc(C(F)(F)F)cc2)nc2c1CSCC2 [XAV939] (first compound 1 µM, partner dose 2 µM) | 188 | 147 | 146 | 74.8 | 65.8 | 146 | 93.2 | 60.2 | 87.6 | 38.9 | 80.7 | 217 | 90.1 | 101 | 101 | 135 | 75.5 | 51.7
10 | C#Cc1cccc(Nc2ncnc3cc(OCCOC)c(OCCOC)cc23)c1 [erlotinib] + O=S(=O)(c1ccccc1)N(CC(F)(F)F)c1ccc(C(O)(C(F)(F)F)C(F)(F)F)cc1 [T0901317] (first compound 0.8 µM, partner dose 1.4 µM) | 90.3 | 72.7 | 102 | 159 | 44.8 | 885 | 96.8 | 20.7 | 88.1 | 96.4 | 80.3 | 158 | 126 | 48.9 | 69.1 | 90.8 | 166 | 68.3
11 | Cc1ccc(NC(=O)c2cccc(N(C)C)c2)cc1NC(=O)c1ccc(O)cc1 + COc1ccc2c(c1)CCC1C2CCC2(C)C(NCCCCCCN3C(=O)C=CC3=O)CCC12 [U73122] (first compound 2 µM, partner dose 0.4 µM) | 84.3 | 75.8 | 32 | 199 | 72.2 | 35.4 | 115 | 17.8 | 114 | 52.3 | 32.4 | 141 | 120 | 158 | 248 | 35.4 | 89.8 | 108
12 | Cc1ccc(NC(=O)c2cccc(N(C)C)c2)cc1NC(=O)c1ccc(O)cc1 + CCc1ccc(CCOc2ccc(CC3SC(=O)NC3=O)cc2)nc1 [pioglitazone] (first compound 2 µM, partner dose 2 µM) | 90 | 72.2 | 63.8 | 80.5 | 76.9 | 82.8 | 110 | 72.7 | 101 | 49.8 | 14.4 | 107 | 51.1 | 130 | 50.8 | 34.8 | 76.4 | 30.8
13 | Cc1ccc(NC(=O)c2cccc(N(C)C)c2)cc1NC(=O)c1ccc(O)cc1 + c1cc(-c2cnn3cc(-c4ccc(OCCN5CCCCC5)cc4)cnc23)ccn1 [Dorsomorphin] (first compound 2 µM, partner dose 0.4 µM) | 112 | 190 | 87.5 | 185 | 42.1 | 24.1 | 128 | 154 | 43.2 | 87.3 | 107 | 44.5 | 120 | 178 | 133 | 36.3 | 87.9 | 61.3
14 | C=CCn1c(=O)c2cnc(Nc3ccc(N4CCN(C)CC4)cc3)nc2n1-c1cccc(C(C)(C)O)n1 + COc1ccc(-c2ccc3c(N4CCOCC4)nc(N4C[C@@H](C)O[C@@H](C)C4)nc3n2)cc1CO [KU0063794] (first compound 0.02 µM, partner dose 0.02 µM) | 74.4 | 211 | 143 | 276 | 45.2 | 1010 | 126 | 110 | 95.1 | 47.5 | 142 | 62.8 | 172 | 105 | 187 | 160 | 79.8 | 72.6
15 | O=C(CCCCCCC(=O)Nc1ccccc1)NO [vorinostat] + Cc1cc([N+](=O)[O-])ccc1NS(=O)(=O)c1cc(Cl)ccc1Cl [FH535] (first compound 0.08 µM, partner dose 1 µM) | 79.5 | 383 | 168 | 68.6 | 126 | 78.1 | 133 | 888 | 261 | 162 | 113 | 174 | 112 | 125 | 47.4 | 103 | 186 | 74.6
16 | Cn1c(Nc2ccc(C(F)(F)F)cc2)nc2cc(Oc3ccnc(-c4ncc(C(F)(F)F)[nH]4)c3)ccc21 + O=c1cc(-c2cccc3c2Sc2ccccc2S3)oc(N2CCOCC2)c1 [KU55933] (first compound 0.08 µM, partner dose 1 µM) | 49.8 | 337 | 37.1 | 277 | 34.7 | 117 | 110 | 94.6 | 84.9 | 170 | 344 | 104 | 66.4 | 166 | 148 | 33.9 | 283 | 87
17 | C#Cc1cccc(Nc2ncnc3cc(OCCOC)c(OCCOC)cc23)c1 [erlotinib] + O=c1cc(-c2cccc3c2Sc2ccccc2S3)oc(N2CCOCC2)c1 [KU55933] (first compound 0.8 µM, partner dose 1 µM) | 243 | 131 | 114 | 112 | 80.8 | 206 | 90.3 | 49 | 85.2 | 104 | 103 | 60 | 58.1 | 80.2 | 132 | 68.6 | 144 | 28.2
18 | O=C(Nc1cccc(Cl)c1)Nc1ncc(CCNc2ncnc3ccsc23)s1 + c1cc(-c2cnn3cc(-c4ccc(OCCN5CCCCC5)cc4)cnc23)ccn1 [Dorsomorphin] (first compound 0.0008 µM, partner dose 0.4 µM) | 133 | 59.1 | 69 | 89.5 | 82.7 | 63.7 | 103 | 52.9 | 86.2 | 89.4 | 111 | 96.2 | 73.5 | 102 | 85.1 | 96 | 84.2 | 58.1
19 | COc1cc(Nc2ncc(F)c(Nc3ccc4c(n3)NC(=O)C(C)(C)O4)n2)cc(OC)c1OC [Tamatinib] + O=c1cc(-c2cccc3c2Sc2ccccc2S3)oc(N2CCOCC2)c1 [KU55933] (first compound 0.4 µM, partner dose 1 µM) | 42.5 | 176 | 198 | 54.7 | 139 | 52.8 | 92.1 | 75.9 | 77.2 | 54.3 | 176 | 212 | 114 | 129 | 74.1 | 142 | 530 | 73.4

Pulled one by one from the entries so far:
Row | SMILES | cleaved PARP positive nuclei fraction [1] [%] | cleaved PARP positive nuclei fraction [2] [%] | cleaved PARP positive nuclei fraction [3] [%] | cleaved PARP positive nuclei fraction [4] [%] | cleaved PARP positive nuclei fraction [5] [%] | cleaved PARP positive nuclei fraction [6] [%] | cleaved PARP positive nuclei fraction [7] [%] | cleaved PARP positive nuclei fraction [8] [%] | cleaved PARP positive nuclei fraction [9] [%] | cleaved PARP positive nuclei fraction [10] [%] | cleaved PARP positive nuclei fraction [11] [%] | cleaved PARP positive nuclei fraction [12] [%] | cleaved PARP positive nuclei fraction [13] [%] | cleaved PARP positive nuclei fraction [14] [%] | cleaved PARP positive nuclei fraction [15] [%] | cleaved PARP positive nuclei fraction [16] [%] | cleaved PARP positive nuclei fraction [17] [%] | cleaved PARP positive nuclei fraction [18] [%]
5 | COc1cc(Nc2ncc(F)c(Nc3ccc4c(n3)NC(=O)C(C)(C)O4)n2)cc(OC)c1OC [Tamatinib] + COc1cc2ncnc(Nc3ccc(Oc4ccccc4)cc3)c2cc1OC [SrcI1] (first compound 0.4 µM, partner dose 2 µM) | 48.9 | 195 | 36.2 | 127 | 60.8 | 140 | 96.5 | 92.7 | 109 | 140 | 152 | 114 | 106 | 166 | 32.6 | 92.4 | 88.4 | 35.9
19 | COc1cc(Nc2ncc(F)c(Nc3ccc4c(n3)NC(=O)C(C)(C)O4)n2)cc(OC)c1OC [Tamatinib] + O=c1cc(-c2cccc3c2Sc2ccccc2S3)oc(N2CCOCC2)c1 [KU55933] (first compound 0.4 µM, partner dose 1 µM) | 42.5 | 176 | 198 | 54.7 | 139 | 52.8 | 92.1 | 75.9 | 77.2 | 54.3 | 176 | 212 | 114 | 129 | 74.1 | 142 | 530 | 73.4
